{"source": "the supplement of paper PMC8728848", "binders": {"B1": {"name": "GS7807F-bth-514-18-514 (Bacteroides thetaiotaomicron) (protein)", "chain": "AGSCTGNFEEYNTNQFQIHEADPSTLMKSMIETIVNIQQNDSQMMDQMVGQLGGYLTCANVWSGTNFGTFNQSDAWNAGPWNTNFEKIYGNFFQIQEATNESGHYYAFARMIRAITMLRVADCYGPMPYSQVKKGNFYVAYDTEEQVYKNIMEDFASAANVLYNYYKDTNGNAPLASNDPVFSGNYANWARLANSMRLRVAIRISTAYPEMAKENAEAAASHEAGLIEANNDNAMMDCGSQTNPYQLAAVSWGDLRVNANIVDYMNGYGDPRMSKYFNHSTFTGHTQEYVGMRSGEDGFAKSDVAGYSIPAITGTSKLLVFCAAETAFLRAEGKLKNWSVGNKSAKEYYEEGIKLSMEQYGTTMPDNYLTNTEKPTVSHNNDPRGHAYTISNTVAVAWNDNNEEENLQRIITQKWIANYPLGLEAWAEYRRTGYPELYPCIDNLSPSGVDSKRGMRRLRFPYTEVQNNHSNYQQGVSYLKNGGPDNEATDLSWGKTN"}}, "assay_in_all_cases": "glycan array binding signal (z-score within array); higher = stronger binding", "details_in_all_cases": "glycan notation: IUPAC condensed, linker removed", "key": {"[1]": {"target": "Neu5Ac(a2-3)Gal(b1-4)GlcNAc(b1-2)[Neu5Ac(a2-3)Gal(b1-4)GlcNAc(b1-4)]Man(a1-3)[GlcNAc(b1-4)][Neu5Ac(a2-3)Gal(b1-4)GlcNAc(b1-4)Man(a1-6)]Man(b1-4)GlcNAc(b1-4)GlcNAc", "in_short": "(§1)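 Arrays were curated from the Consortium for Functional Glycomics database, 3228 in total, and kept only where the protein sequence was available. Binding is expressed as a within-array Z-score. This score was averaged across arrays of the same protein sequence at different concentrations or buffers and across linkers, and negative values can be read as non-binding.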"}, "[2]": {"target": "Neu5Ac(a2-3)Gal(b1-4)GlcNAc(b1-2)[Neu5Ac(a2-3)Gal(b1-4)GlcNAc(b1-6)]Man(a1-6)[Neu5Ac(a2-3)Gal(b1-4)GlcNAc(b1-2)Man(a1-3)]Man(b1-4)GlcNAc(b1-4)GlcNAc", "in_short": "as §1"}, "[3]": {"target": "Neu5Ac(a2-3)Gal(b1-4)GlcNAc(b1-2)[Neu5Ac(a2-3)Gal(b1-4)GlcNAc(b1-6)]Man(a1-6)[Neu5Ac(a2-3)Gal(b1-4)GlcNAc(b1-2)Man(a1-3)][GlcNAc(b1-4)]Man(b1-4)GlcNAc(b1-4)GlcNAc", "in_short": "as §1"}, "[4]": {"target": "Neu5Ac(a2-3)Gal(b1-4)GlcNAc(b1-3)Gal", "in_short": "as §1"}, "[5]": {"target": "Neu5Ac(a2-3)Gal(b1-4)GlcNAc(b1-3)Gal(b1-3)GlcNAc", "in_short": "as §1"}, "[6]": {"target": "Neu5Ac(a2-3)Gal(b1-4)GlcNAc(b1-3)Gal(b1-4)GlcNAc", "in_short": "as §1"}, "[7]": {"target": "Neu5Ac(a2-3)Gal(b1-4)GlcNAc(b1-3)Gal(b1-4)GlcNAc(b1-2)Man(a1-3)[Neu5Ac(a2-3)Gal(b1-4)GlcNAc(b1-3)Gal(b1-4)GlcNAc(b1-2)Man(a1-6)]Man(b1-4)GlcNAc(b1-4)GlcNAc", "in_short": "as §1"}, "[8]": {"target": "Neu5Ac(a2-3)Gal(b1-4)GlcNAc(b1-3)Gal(b1-4)GlcNAc(b1-3)Gal(b1-4)GlcNAc", "in_short": "as §1"}, "[9]": {"target": "Neu5Ac(a2-3)Gal(b1-4)GlcNAc(b1-3)Gal(b1-4)GlcNAc(b1-3)Gal(b1-4)GlcNAc(b1-2)Man(a1-3)[Neu5Ac(a2-3)Gal(b1-4)GlcNAc(b1-3)Gal(b1-4)GlcNAc(b1-3)Gal(b1-4)GlcNAc(b1-2)Man(a1-6)]GalNAc", "in_short": "as §1"}, "[10]": {"target": "Neu5Ac(a2-3)Gal(b1-4)GlcNAc(b1-3)Gal(b1-4)GlcNAc(b1-3)GalNAc", "in_short": "as §1"}, "[11]": {"target": "Neu5Ac(a2-3)Gal(b1-4)GlcNAc(b1-3)Gal(b1-4)GlcNAc(b1-3)[Neu5Ac(a2-3)Gal(b1-4)GlcNAc(b1-3)Gal(b1-4)GlcNAc(b1-6)]GalNAc", "in_short": "as §1"}, "[12]": {"target": "Neu5Ac(a2-3)Gal(b1-4)GlcNAc(b1-3)Gal(b1-4)GlcNAc(b1-6)[Gal(b1-3)]GalNAc", "in_short": "as §1"}, "[13]": {"target": "Neu5Ac(a2-3)Gal(b1-4)GlcNAc(b1-3)Gal(b1-4)[Fuc(a1-3)]GlcNAc", "in_short": "as §1"}, "[14]": {"target": "Neu5Ac(a2-3)Gal(b1-4)GlcNAc(b1-3)GalNAc", "in_short": "as §1"}, "[15]": {"target": "Neu5Ac(a2-3)Gal(b1-4)GlcNAc(b1-3)[Neu5Ac(a2-3)Gal(b1-4)GlcNAc(b1-6)]GalNAc", "in_short": "as §1"}, "[16]": {"target": "Neu5Ac(a2-3)Gal(b1-4)GlcNAc(b1-6)GalNAc", "in_short": "as §1"}, "[17]": {"target": "Neu5Ac(a2-3)Gal(b1-4)GlcNAc(b1-6)[Gal(b1-3)]GalNAc", "in_short": "as §1"}, "[18]": {"target": "Neu5Ac(a2-3)Gal(b1-4)GlcNAc(b1-6)[Neu5Ac(a2-3)Gal(b1-3)]GalNAc", "in_short": "as §1"}, "[19]": {"target": "Neu5Ac(a2-3)Gal(b1-4)GlcNAc6S", "in_short": "as §1"}, "[20]": {"target": "Neu5Ac(a2-3)Gal(b1-4)[Fuc(a1-3)]GlcNAc", "in_short": "as §1"}, "[21]": {"target": "Neu5Ac(a2-3)Gal(b1-4)[Fuc(a1-3)]GlcNAc(b1-2)Man", "in_short": "as §1"}, "[22]": {"target": "Neu5Ac(a2-3)Gal(b1-4)[Fuc(a1-3)]GlcNAc(b1-3)Gal", "in_short": "as §1"}, "[23]": {"target": "Neu5Ac(a2-3)Gal(b1-4)[Fuc(a1-3)]GlcNAc(b1-3)Gal(b1-4)GlcNAc", "in_short": "as §1"}, "[24]": {"target": "Neu5Ac(a2-3)Gal(b1-4)[Fuc(a1-3)]GlcNAc(b1-3)Gal(b1-4)[Fuc(a1-3)]GlcNAc(b1-3)Gal(b1-4)[Fuc(a1-3)]GlcNAc", "in_short": "as §1"}, "[25]": {"target": "Neu5Ac(a2-3)Gal(b1-4)[Fuc(a1-3)]GlcNAc(b1-3)GalNAc", "in_short": "as §1"}, "[26]": {"target": "Neu5Ac(a2-3)Gal(b1-4)[Fuc(a1-3)]GlcNAc(b1-6)[Gal(b1-3)]GalNAc", "in_short": "as §1"}, "[27]": {"target": "Neu5Ac(a2-3)Gal(b1-4)[Fuc(a1-3)]GlcNAc(b1-6)[Neu5Ac(a2-3)Gal(b1-3)]GalNAc", "in_short": "as §1"}, "[28]": {"target": "Neu5Ac(a2-3)Gal(b1-4)[Fuc(a1-3)]GlcNAc6S", "in_short": "as §1"}, "[29]": {"target": "Neu5Ac(a2-3)Gal6S(b1-4)GlcNAc", "in_short": "as §1"}, "[30]": {"target": "Neu5Ac(a2-3)Gal6S(b1-4)[Fuc(a1-3)]GlcNAc", "in_short": "as §1"}, "Neu5Ac(a2-3)GalNAc": {"target": "Neu5Ac(a2-3)GalNAc", "in_short": "as §1"}, "[31]": {"target": "Neu5Ac(a2-3)GalNAc(b1-4)GlcNAc", "in_short": "as §1"}, "[32]": {"target": "Neu5Ac(a2-3)[GalNAc(b1-4)]Gal(b1-4)Glc", "in_short": "as §1"}, "[33]": {"target": "Neu5Ac(a2-3)[GalNAc(b1-4)]Gal(b1-4)GlcNAc", "in_short": "as §1"}, "[34]": {"target": "Neu5Ac(a2-3)[GalNAc(b1-4)]Gal(b1-4)GlcNAc(b1-3)GalNAc", "in_short": "as §1"}, "[35]": {"target": "Neu5Ac(a2-3)[Neu5Ac(a2-6)]GalNAc", "in_short": "as §1"}, "Neu5Ac(a2-6)Gal": {"target": "Neu5Ac(a2-6)Gal", "in_short": "as §1"}}, "note": "Some of the results follow.", "data": [{"binder": "B1", "values": [{"measurement": "glycan array binding signal (z-score)", "setting": "[1]", "result": -0.887}, {"measurement": "glycan array binding signal (z-score)", "setting": "[2]", "result": -0.391}, {"measurement": "glycan array binding signal (z-score)", "setting": "[3]", "result": -0.89}, {"measurement": "glycan array binding signal (z-score)", "setting": "[4]", "result": -0.848}, {"measurement": "glycan array binding signal (z-score)", "setting": "[5]", "result": -0.597}, {"measurement": "glycan array binding signal (z-score)", "setting": "[6]", "result": -0.353}, {"measurement": "glycan array binding signal (z-score)", "setting": "[7]", "result": 2.45}, {"measurement": "glycan array binding signal (z-score)", "setting": "[8]", "result": -0.869}, {"measurement": "glycan array binding signal (z-score)", "setting": "[9]", "result": 2.04}, {"measurement": "glycan array binding signal (z-score)", "setting": "[10]", "result": -0.893}, {"measurement": "glycan array binding signal (z-score)", "setting": "[11]", "result": 1.28}, {"measurement": "glycan array binding signal (z-score)", "setting": "[12]", "result": 0.268}, {"measurement": "glycan array binding signal (z-score)", "setting": "[13]", "result": -0.859}, {"measurement": "glycan array binding signal (z-score)", "setting": "[14]", "result": -0.877}, {"measurement": "glycan array binding signal (z-score)", "setting": "[15]", "result": -0.897}, {"measurement": "glycan array binding signal (z-score)", "setting": "[16]", "result": -0.442}, {"measurement": "glycan array binding signal (z-score)", "setting": "[17]", "result": -0.094}, {"measurement": "glycan array binding signal (z-score)", "setting": "[18]", "result": -0.898}, {"measurement": "glycan array binding signal (z-score)", "setting": "[19]", "result": -0.841}, {"measurement": "glycan array binding signal (z-score)", "setting": "[20]", "result": -0.894}, {"measurement": "glycan array binding signal (z-score)", "setting": "[21]", "result": -0.684}, {"measurement": "glycan array binding signal (z-score)", "setting": "[22]", "result": -0.924}, {"measurement": "glycan array binding signal (z-score)", "setting": "[23]", "result": 0.143}, {"measurement": "glycan array binding signal (z-score)", "setting": "[24]", "result": -0.88}, {"measurement": "glycan array binding signal (z-score)", "setting": "[25]", "result": 1.62}, {"measurement": "glycan array binding signal (z-score)", "setting": "[26]", "result": 1.96}, {"measurement": "glycan array binding signal (z-score)", "setting": "[27]", "result": 0.621}, {"measurement": "glycan array binding signal (z-score)", "setting": "[28]", "result": -0.84}, {"measurement": "glycan array binding signal (z-score)", "setting": "[29]", "result": -0.774}, {"measurement": "glycan array binding signal (z-score)", "setting": "[30]", "result": -0.904}, {"measurement": "glycan array binding signal (z-score)", "setting": "Neu5Ac(a2-3)GalNAc", "result": -0.712}, {"measurement": "glycan array binding signal (z-score)", "setting": "[31]", "result": -0.897}, {"measurement": "glycan array binding signal (z-score)", "setting": "[32]", "result": -0.409}, {"measurement": "glycan array binding signal (z-score)", "setting": "[33]", "result": -0.73}, {"measurement": "glycan array binding signal (z-score)", "setting": "[34]", "result": 1.09}, {"measurement": "glycan array binding signal (z-score)", "setting": "[35]", "result": -0.781}, {"measurement": "glycan array binding signal (z-score)", "setting": "Neu5Ac(a2-6)Gal", "result": 0.08}]}]}
